In PubChem BioAssay AID212 (DTP/NCI, 2004):
The list is a part of this screen's results and no random one: it gathers tests that were run many times, whatever their T/C, doses with no T/C, and many T/C values between a quarter and a half above the control. Further doses and runs are listed elsewhere. T/C is the treated group as % of the vehicle group. Schedule codes are those of the source, read here as Q, the interval in days (D) or hours (H), X, the number of doses. Some entries hold several experiments; the results are listed from low to high. Some structures stand for samples that the source files as different forms (salt, stereo form or complex); doses refer to the form tested. Some T/C values carry the count of animals alive at the toxicity check (mostly the fifth day); where none is given, no animal had died by that day. Some doses have a count of surviving animals in place of a T/C: the source holds a T/C of zero for them, seemingly a mark for toxic or unscored doses. Some doses without a T/C left all or most animals alive at the check, yet need not have been tolerated: survival well below the control is almost never listed, so the zero probably covers shortened survival too. Counts of survivors are from the toxicity check (mostly the fifth day) where no day follows; animals may have died later. For survival time, the PubChem record calls one and a half times the control and up active, and a quarter to a half above the control has no call in these data; cut-offs in other NCI protocols can differ.

Tested on: BDF1 mice, colon carcinoma 38 sc, T/C %
Test: NCI In Vivo Anticancer Drug Screen. Data for tumor model Colon Carcinoma 38 (subcutaneous) in B6D2F1 (BDF1) mice
Outline: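 T/C readout: treated group (T) measurement over vehicle control group (C) measurement. Endpoint is survival or tumor size in mice bearing a transplanted tumor.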

[1] = T/C endpoint: median tumor weight (est.), dose: 400.0 mg/kg/injection, schedule: Q07DX002 (ip), vehicle: Klucel (hydroxypropylcellulose) (HPC), higher T/C = larger tumour
[2] = T/C endpoint: median tumor weight (est.), dose: 800.0 mg/kg/injection, schedule: Q07DX002 (ip), vehicle: Klucel (hydroxypropylcellulose) (HPC), higher T/C = larger tumour
[3] = T/C endpoint: median tumor weight (est.), dose: 50.0 mg/kg/injection, schedule: Q07DX002 (ip), vehicle: Klucel (hydroxypropylcellulose) (HPC), evaluated on day 20, higher T/C = larger tumour

ClC(Cl)=C(Cl)Cl
T/C (T/C endpoint: median tumor weight (est.), dose: 112.0 mg/kg/injection, schedule: Q07DX002 (ip), vehicle: saline with Tween-80, evaluated on day 20, higher T/C = larger tumour): 133 % of control | survivor count (T/C endpoint: median tumor weight (est.), dose: 400.0 mg/kg/injection, schedule: Q07DX002 (ip), vehicle: other, higher T/C = larger tumour): 2 of 10 on day 20 | survivor count (T/C endpoint: median tumor weight (est.), dose: 800.0 mg/kg/injection, schedule: Q07DX002 (ip), vehicle: other, higher T/C = larger tumour): 0 of 10 on day 20 | survivor count (T/C endpoint: median tumor weight (est.), dose: 1600.0 mg/kg/injection, schedule: Q07DX002 (ip), vehicle: other, higher T/C = larger tumour): 0 of 10 on day 20 and 5 of 10 on day 20

Cc1cc(Nc2ccc3c(c2)OCO3)c2cc3c(cc2n1)OCO3
survivor count [1]: 0 of 10 on day 20 | survivor count [2]: 0 of 10 on day 20

O=c1c(O)c(-c2cc(O)c(O)c(O)c2)oc2cc(O)cc(O)c12
T/C (T/C endpoint: median tumor weight (est.), dose: 200.0 mg/kg/injection, schedule: Q07DX002 (ip), vehicle: saline with Tween-80, evaluated on day 20, higher T/C = larger tumour): 135 % of control

BrCC[Se]c1ccccc1
T/C (T/C endpoint: median tumor weight (est.), dose: 25.0 mg/kg/injection, schedule: Q07DX002 (ip), vehicle: saline with Tween-80, evaluated on day 20, higher T/C = larger tumour): 127 [8 of 10 alive on day 20] and 149 % of control | survivor count (T/C endpoint: median tumor weight (est.), dose: 50.0 mg/kg/injection, schedule: Q07DX002 (ip), vehicle: saline with Tween-80, higher T/C = larger tumour): 0 of 10 on day 20 | survivor count (T/C endpoint: median tumor weight (est.), dose: 100.0 mg/kg/injection, schedule: Q07DX002 (ip), vehicle: saline with Tween-80, higher T/C = larger tumour): 0 of 10 on day 20 and 3 of 10 on day 20 | survivor count (T/C endpoint: median tumor weight (est.), dose: 200.0 mg/kg/injection, schedule: Q07DX002 (ip), vehicle: saline with Tween-80, higher T/C = larger tumour): 0 of 10 on day 20

COc1ccc(-c2csc(=[N+]3CCCCC3)s2)cc1
survivor count (T/C endpoint: median tumor weight (est.), dose: 100.0 mg/kg/injection, schedule: Q07DX002 (ip), vehicle: water, higher T/C = larger tumour): 0 of 10 on day 20

CC(=O)Nc1ccc(S(=O)(=O)CO)cc1
T/C (T/C endpoint: median tumor weight (est.), dose: 50.0 mg/kg/injection, schedule: Q07DX002 (ip), vehicle: saline with Tween-80, evaluated on day 20, higher T/C = larger tumour): 133 % of control

CN(C)N=Nc1cn[nH]c1C(N)=O
T/C (T/C endpoint: median tumor weight (est.), dose: 25.0 mg/kg/injection, schedule: Q07DX002 (ip), vehicle: Klucel (hydroxypropylcellulose) (HPC), evaluated on day 20, higher T/C = larger tumour): 98, 127, 158 % of control | T/C [3]: 46, 145, 184 % of control | T/C (T/C endpoint: median tumor weight (est.), dose: 100.0 mg/kg/injection, schedule: Q07DX002 (ip), vehicle: Klucel (hydroxypropylcellulose) (HPC), evaluated on day 20, higher T/C = larger tumour): 40, 95, 219 % of control [9 of 10 alive on day 20] | T/C (T/C endpoint: median tumor weight (est.), dose: 200.0 mg/kg/injection, schedule: Q07DX002 (ip), vehicle: Klucel (hydroxypropylcellulose) (HPC), evaluated on day 20, higher T/C = larger tumour): 25 [9 of 10 alive on day 20], 57, 84 % of control | survivor count [1]: 4 of 10 on day 20 and 5 of 10 on day 20 | survivor count [2]: 0 of 10 on day 20

CC1(O)CC23CC(O)C4(O)C(CC(O)C4(C)C)C(C)(O)C2CCC1C3O (stereo not drawn)
survivor count (T/C endpoint: median tumor weight (est.), dose: 1.0 mg/kg/injection, schedule: Q07DX002 (ip), vehicle: Klucel (hydroxypropylcellulose) (HPC), higher T/C = larger tumour): 0 of 10 on day 20 | survivor count (T/C endpoint: median tumor weight (est.), dose: 2.0 mg/kg/injection, schedule: Q07DX002 (ip), vehicle: Klucel (hydroxypropylcellulose) (HPC), higher T/C = larger tumour): 0 of 10 on day 20 | survivor count (T/C endpoint: median tumor weight (est.), dose: 4.0 mg/kg/injection, schedule: Q07DX002 (ip), vehicle: Klucel (hydroxypropylcellulose) (HPC), higher T/C = larger tumour): 0 of 10 on day 20

OC1(CSc2ccccc2)CCCCC1
survivor count (T/C endpoint: median tumor weight (est.), dose: 800.0 mg/kg/injection, schedule: Q07DX002 (ip), vehicle: saline with Tween-80, higher T/C = larger tumour): 0 of 10 on day 20

CCCCCC(O)C1C(=O)OC(C)C(O)/C=C/C=C/C=C/C=C\C=C(\C)C(O)CC(O)CC(O)CC(O)CC(O)CC(O)CC1O (stereo not drawn)
T/C (T/C endpoint: median tumor weight (est.), dose: 10.0 mg/kg/injection, schedule: Q07DX002 (ip), vehicle: saline, evaluated on day 20, higher T/C = larger tumour): 135 % of control

O=c1[nH]c(=O)n(C2CC(O)C(CO)O2)cc1Br (stereo not drawn)
T/C [3]: 148 % of control | T/C (T/C endpoint: median tumor weight (est.), dose: 800.0 mg/kg/injection, schedule: Q07DX002 (ip), vehicle: Klucel (hydroxypropylcellulose) (HPC), evaluated on day 20, higher T/C = larger tumour): 134 % of control

CN(CCN(C)C(=O)CCOS(C)(=O)=O)C(=O)CCOS(C)(=O)=O
survivor count (T/C endpoint: median tumor weight (est.), dose: 400.0 mg/kg/injection, schedule: Q07DX002 (ip), vehicle: saline, higher T/C = larger tumour): 4 of 10 on day 20 and 5 of 10 on day 20

N#CN=[N+]([O-])c1ccc(C(=O)O)cc1
T/C (T/C endpoint: median tumor weight (est.), dose: 7.5 mg/kg/injection, schedule: Q07DX002 (ip), vehicle: Klucel (hydroxypropylcellulose) (HPC), evaluated on day 20, higher T/C = larger tumour): 135 % of control | T/C (T/C endpoint: median tumor weight (est.), dose: 15.0 mg/kg/injection, schedule: Q07DX002 (ip), vehicle: Klucel (hydroxypropylcellulose) (HPC), evaluated on day 20, higher T/C = larger tumour): 147 % of control | T/C (T/C endpoint: median tumor weight (est.), dose: 30.0 mg/kg/injection, schedule: Q07DX002 (ip), vehicle: Klucel (hydroxypropylcellulose) (HPC), evaluated on day 20, higher T/C = larger tumour): 133 [9 of 10 alive on day 20] and 147 % of control | survivor count (T/C endpoint: median tumor weight (est.), dose: 60.0 mg/kg/injection, schedule: Q07DX002 (ip), vehicle: Klucel (hydroxypropylcellulose) (HPC), higher T/C = larger tumour): 3 of 10 on day 20 | survivor count (T/C endpoint: median tumor weight (est.), dose: 120.0 mg/kg/injection, schedule: Q07DX002 (ip), vehicle: Klucel (hydroxypropylcellulose) (HPC), higher T/C = larger tumour): 0 of 10 on day 20

CC(C)(O)/C=C/C(=O)[C@](C)(O)[C@H]1[C@H](O)C[C@@]2(C)[C@@H]3CC=C4[C@@H](C[C@H](O)C(=O)C4(C)C)[C@]3(C)C(=O)C[C@]12C
survivor count (T/C endpoint: median tumor weight (est.), dose: 2.0 mg/kg/injection, schedule: Q07DX002 (ip), vehicle: saline + Tween-80 + alcohol, higher T/C = larger tumour): 4 of 10 on day 20 | survivor count (T/C endpoint: median tumor weight (est.), dose: 4.0 mg/kg/injection, schedule: Q07DX002 (ip), vehicle: saline + Tween-80 + alcohol, higher T/C = larger tumour): 1 of 10 on day 20

OC(CCl)CN1CC[N+]2(CC1)CC[N+]1(CCN(CC(O)CCl)CC1)CC2 (stereo not drawn)
T/C (T/C endpoint: median tumor weight (est.), dose: 100.0 mg/kg/injection, schedule: Q07DX002 (ip), vehicle: saline, evaluated on day 20, higher T/C = larger tumour): 132 % of control

O=C1c2c(O)ccc(O)c2C(=O)c2c(NCCNCCO)ccc(NCCNCCO)c21
T/C (T/C endpoint: median survival time, dose: 1.4 mg/kg/injection, schedule: Q07DX004 (iv), vehicle: water, higher T/C = longer survival): 128 % of control | T/C (T/C endpoint: median survival time, dose: 2.0 mg/kg/injection, schedule: Q04DX004 (ip), vehicle: acid diluted with saline, higher T/C = longer survival): 128 % of control | survivor count (T/C endpoint: median survival time, dose: 8.0 mg/kg/injection, schedule: Q04DX004 (ip), vehicle: acid diluted with saline, higher T/C = longer survival): 10 of 10 | T/C (T/C endpoint: median tumor weight (est.), dose: 1.0 mg/kg/injection, schedule: Q07DX002 (ip), vehicle: water, evaluated on day 20, higher T/C = larger tumour): 70, 82, 84, 108 % of control | T/C (T/C endpoint: median tumor weight (est.), dose: 1.5 mg/kg/injection, schedule: Q07DX003 (ip), vehicle: saline with Tween-80, evaluated on day 20, higher T/C = larger tumour): 142 % of control [9 of 10 alive] | T/C (T/C endpoint: median tumor weight (est.), dose: 2.0 mg/kg/injection, schedule: Q07DX002 (ip), vehicle: water, evaluated on day 20, higher T/C = larger tumour): 64, 83, 91, 103 % of control | T/C (T/C endpoint: median tumor weight (est.), dose: 3.0 mg/kg/injection, schedule: Q07DX003 (ip), vehicle: saline with Tween-80, evaluated on day 20, higher T/C = larger tumour): 139 [9 of 10 alive] and 141 % of control [9 of 10 alive] | T/C (T/C endpoint: median tumor weight (est.), dose: 4.0 mg/kg/injection, schedule: Q07DX002 (ip), vehicle: water, evaluated on day 20, higher T/C = larger tumour): 10, 20, 41 % of control | survivor count (T/C endpoint: median tumor weight (est.), dose: 4.0 mg/kg/injection, schedule: Q07DX002 (ip), vehicle: water, higher T/C = larger tumour): 0 of 10 on day 20 | survivor count (T/C endpoint: median tumor weight (est.), dose: 8.0 mg/kg/injection, schedule: Q07DX002 (ip), vehicle: water, higher T/C = larger tumour): 0 of 10 on day 20 and 2 of 10 on day 20 | survivor count (T/C endpoint: median tumor weight (est.), dose: 16.0 mg/kg/injection, schedule: Q07DX002 (ip), vehicle: water, higher T/C = larger tumour): 0 of 10 on day 20, 1 of 10 on day 20, 2 of 10 on day 20, 3 of 10 on day 20

CC(=O)NC(C=O)OCC=O (stereo not drawn)
T/C (T/C endpoint: median tumor weight (est.), dose: 12.5 mg/kg/injection, schedule: Q07DX002 (ip), vehicle: water, evaluated on day 20, higher T/C = larger tumour): 142 % of control | survivor count (T/C endpoint: median tumor weight (est.), dose: 400.0 mg/kg/injection, schedule: Q07DX002 (ip), vehicle: water, higher T/C = larger tumour): 2 of 10 on day 20

C=C1C(=O)OCC1C(=O)O (stereo not drawn)
survivor count (T/C endpoint: median tumor weight (est.), dose: 128.0 mg/kg/injection, schedule: Q07DX002 (ip), vehicle: saline, higher T/C = larger tumour): 5 of 10 on day 20

CN=S(=O)(OCCCCCOS(=O)(=NC)c1ccccc1)c1ccccc1 (stereo not drawn)
T/C (T/C endpoint: median tumor weight (est.), dose: 100.0 mg/kg/injection, schedule: Q07DX002 (ip), vehicle: saline with Tween-80, evaluated on day 20, higher T/C = larger tumour): 145 % of control | survivor count (T/C endpoint: median tumor weight (est.), dose: 400.0 mg/kg/injection, schedule: Q07DX002 (ip), vehicle: saline with Tween-80, higher T/C = larger tumour): 5 of 10 on day 20

COc1cccc2c1C(=O)c1c(O)c3c(c(O)c1C2=O)CC(O)(/C(C)=N/NC(=O)CCCCC(=O)N/N=C(\C)C1(O)Cc2c(O)c4c(c(O)c2C(OC2CC(N)C(O)C(C)O2)C1)C(=O)c1c(OC)cccc1C4=O)CC3OC1CC(N)C(O)C(C)O1 (stereo not drawn)
survivor count (T/C endpoint: median tumor weight (est.), dose: 50.0 mg/kg/injection, schedule: Q07DX002 (ip), vehicle: saline, higher T/C = larger tumour): 0 of 10 on day 20 | survivor count (T/C endpoint: median tumor weight (est.), dose: 50.0 mg/kg/injection, schedule: Q07DX002 (ip), vehicle: water, higher T/C = larger tumour): 0 of 10 on day 20
